Assay results reported in article PMC5344518, “Anti-trypanosomal activity of non-peptidic nitrile-based cysteine protease inhibitors” (PLoS Neglected Tropical Diseases, 2017).

test system: amastigote forms of T. cruzi CL Brener strain; assay: Anti-trypanosomal activity assay (beta-galactosidase reporter, infected LLC-MK2 cells); format: cell-based; conditions: anti-trypanosomal pEC50 minus cruzain pKi
Method: Assays were performed against amastigote forms of T. cruzi CL Brener strain, which expresses β-galactosidase derived from Escherichia coli, infecting monkey kidney (LLC-MK2) cells as described. Previously, LLC-MK2 host cells were cultivated in 96-wells microplates (10^3 cells/well). […] Then, the wells were washed with PBS to remove the extracellular parasites and the tested compounds were added in the final concentrations of 0.031, 0.125, 0.5, 2.0, 8.0, 32.0, 128 and 512 μM. After this, the microplates were incubated at 37°C, in CO2 atmosphere (5%), for 5 days. Then, 10 μL of FluoReporter lacZ/Galactosidase Quantitation Kit (Molecular Probes, ThermoFisher Scientific) were added and after 30 minutes the fluorometric reaction was read in a microplate reader (Synergy H1, Biotek) at 386 nm excitation and 448 nm emission. The metabolism of the substrate is directly correlated with the amount of β-galactosidase activity and, therefore, the number amastigotes. The percentage of activity for each compound was determined from the following formula: %activity = 100 –{[(X-PC)/(NC-PC)]x100}, where the optical density values of the samples (X), the positive controls (PC) and negative controls (NC) were used. Culture medium alone was used as positive control (PC) and cells with medium and 0.6% DMSO (v/v) as negative control (NC). All assays were performed in triplicate with two independent experiments.

SMILES	pEC50 − pKi
N#CC1(NC(=O)[C@H](Cc2ccccc2)N[C@H](c2ccccc2)C(F)(F)F)CC1 [Compound 5, (S)-N-(1-cyanocyclopropyl)-3-phenyl-2-(((R)-2,2,2-trifluoro-1-phenyl-ethyl)amino)propanamide]	1.3
COc1cc(N2CCN(C(=O)[C@@H]3CCCC[C@H]3C(=O)NC3(C#N)CC3)[C@H](C)C2)ccc1C1CC1 [Compound 11]	1.0
Cc1nn(C)c2cc(N3CCN(C(=O)[C@@H]4CCCC[C@H]4C(=O)NC4(C#N)CC4)[C@H](C)C3)ccc12 [Compound 12]	0.4
